From article PMC9309057
These are yes or no findings as the source states them, for the method shown. Binding seen in cells or lysates may run through a third protein. Some entries that bind do so weakly or less than the wild type.

Amino acid sequences for entries named in this document (tags omitted). A change or cut given only in a name is not applied to a line headed by its entry. Chains listed by the source or under a name are the forms on record and can include a tag or linker.
RUNX3-FLAG (human RUNX3 in pcDNA3.1) (Q13761, form named): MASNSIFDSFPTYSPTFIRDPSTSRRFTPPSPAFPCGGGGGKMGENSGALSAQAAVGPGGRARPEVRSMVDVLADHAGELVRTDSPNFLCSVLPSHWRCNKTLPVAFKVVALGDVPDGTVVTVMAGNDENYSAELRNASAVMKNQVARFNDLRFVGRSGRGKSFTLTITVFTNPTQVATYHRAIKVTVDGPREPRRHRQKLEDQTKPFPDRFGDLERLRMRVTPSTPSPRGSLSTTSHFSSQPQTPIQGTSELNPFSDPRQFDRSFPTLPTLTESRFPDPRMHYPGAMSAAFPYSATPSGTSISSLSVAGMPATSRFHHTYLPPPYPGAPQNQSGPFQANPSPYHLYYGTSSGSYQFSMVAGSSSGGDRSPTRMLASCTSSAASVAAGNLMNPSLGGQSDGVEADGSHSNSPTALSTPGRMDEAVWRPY
UniProt P23771: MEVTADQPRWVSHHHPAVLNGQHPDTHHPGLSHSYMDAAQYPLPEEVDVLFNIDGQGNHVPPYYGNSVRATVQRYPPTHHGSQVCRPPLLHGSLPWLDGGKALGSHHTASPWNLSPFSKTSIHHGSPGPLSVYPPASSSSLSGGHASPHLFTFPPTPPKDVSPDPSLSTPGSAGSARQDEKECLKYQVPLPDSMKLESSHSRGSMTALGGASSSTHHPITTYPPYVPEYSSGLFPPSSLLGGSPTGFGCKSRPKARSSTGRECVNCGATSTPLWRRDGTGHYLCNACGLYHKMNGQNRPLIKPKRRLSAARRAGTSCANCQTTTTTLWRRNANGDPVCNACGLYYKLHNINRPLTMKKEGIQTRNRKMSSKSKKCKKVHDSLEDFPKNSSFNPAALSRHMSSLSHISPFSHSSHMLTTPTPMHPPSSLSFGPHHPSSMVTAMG

Molecular target: RUNX3-FLAG (human RUNX3 in pcDNA3.1) (human) (UniProt Q13761)
Assay: co-IP; HEK293T cells cotransfected with pcDNA3.1-RUNX3-FLAG and pcDNA3.1-GATA3-HA, lysed after 48 hours; lysates incubated with mouse anti-FLAG magnetic beads overnight in cold room; washed with PBST (0.1% Triton X-100); Western blot

- binding: binds weakly
Substance: GATA3-HA (human GATA3 in pcDNA3.1) (from UniProt P23771 1-443)
